35 targets from the supplement of paper PMC12819154, “High-throughput peptide-centric local stability assay extends protein–ligand identification to membrane proteins, tissues and bacteria” (Nature Structural & Molecular Biology, 2025) can be followed below.

The chains behind the UniProt entries cited, without tags or fusion partners. Where a name states a change or a piece, a line headed by the entry shows the natural chain unless it says otherwise.
UniProt P28304: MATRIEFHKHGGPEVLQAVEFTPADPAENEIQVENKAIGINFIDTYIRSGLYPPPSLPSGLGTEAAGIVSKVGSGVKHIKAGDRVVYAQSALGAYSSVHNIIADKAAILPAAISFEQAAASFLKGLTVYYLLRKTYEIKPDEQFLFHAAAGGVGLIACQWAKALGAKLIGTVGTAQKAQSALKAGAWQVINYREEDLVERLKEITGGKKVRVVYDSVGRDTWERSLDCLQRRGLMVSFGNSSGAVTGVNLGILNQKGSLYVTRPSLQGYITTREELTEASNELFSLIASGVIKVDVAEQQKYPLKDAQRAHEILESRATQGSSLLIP
UniProt P25524: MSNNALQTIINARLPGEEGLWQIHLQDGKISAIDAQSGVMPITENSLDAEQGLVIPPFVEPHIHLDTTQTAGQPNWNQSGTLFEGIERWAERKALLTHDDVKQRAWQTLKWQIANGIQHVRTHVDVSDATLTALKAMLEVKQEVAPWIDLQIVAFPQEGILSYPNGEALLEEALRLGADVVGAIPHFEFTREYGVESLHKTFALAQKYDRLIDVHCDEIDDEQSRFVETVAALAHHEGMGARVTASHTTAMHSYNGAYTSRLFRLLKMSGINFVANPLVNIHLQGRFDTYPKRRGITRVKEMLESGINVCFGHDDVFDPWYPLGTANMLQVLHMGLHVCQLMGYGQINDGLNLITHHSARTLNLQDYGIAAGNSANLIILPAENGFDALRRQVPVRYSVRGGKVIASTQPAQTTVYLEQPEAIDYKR
UniProt P28631: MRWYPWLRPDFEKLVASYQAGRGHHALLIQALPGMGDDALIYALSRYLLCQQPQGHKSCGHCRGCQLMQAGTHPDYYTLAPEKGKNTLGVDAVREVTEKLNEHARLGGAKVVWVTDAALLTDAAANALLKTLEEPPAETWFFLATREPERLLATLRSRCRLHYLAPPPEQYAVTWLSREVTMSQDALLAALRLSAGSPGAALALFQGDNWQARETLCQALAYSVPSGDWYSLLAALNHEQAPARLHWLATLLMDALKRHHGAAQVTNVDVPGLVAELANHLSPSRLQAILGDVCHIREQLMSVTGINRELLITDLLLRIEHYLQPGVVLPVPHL
UniProt P31129: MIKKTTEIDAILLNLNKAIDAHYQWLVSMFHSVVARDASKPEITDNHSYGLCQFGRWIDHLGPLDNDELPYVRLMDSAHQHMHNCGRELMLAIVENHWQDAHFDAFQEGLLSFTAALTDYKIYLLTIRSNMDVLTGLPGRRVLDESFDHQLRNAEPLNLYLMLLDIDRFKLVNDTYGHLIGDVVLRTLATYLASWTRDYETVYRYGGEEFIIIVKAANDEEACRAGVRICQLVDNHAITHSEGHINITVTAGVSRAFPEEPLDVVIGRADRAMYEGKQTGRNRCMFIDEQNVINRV
UniProt P30750: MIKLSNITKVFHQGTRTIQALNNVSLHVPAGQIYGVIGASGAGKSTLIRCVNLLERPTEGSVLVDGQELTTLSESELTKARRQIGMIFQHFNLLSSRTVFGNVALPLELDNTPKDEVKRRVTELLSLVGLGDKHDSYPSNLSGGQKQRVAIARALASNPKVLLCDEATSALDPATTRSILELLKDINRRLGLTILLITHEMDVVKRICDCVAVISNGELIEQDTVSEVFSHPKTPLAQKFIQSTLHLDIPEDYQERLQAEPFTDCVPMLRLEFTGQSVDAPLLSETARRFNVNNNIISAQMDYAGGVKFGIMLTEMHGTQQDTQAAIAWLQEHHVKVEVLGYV
UniProt P25536: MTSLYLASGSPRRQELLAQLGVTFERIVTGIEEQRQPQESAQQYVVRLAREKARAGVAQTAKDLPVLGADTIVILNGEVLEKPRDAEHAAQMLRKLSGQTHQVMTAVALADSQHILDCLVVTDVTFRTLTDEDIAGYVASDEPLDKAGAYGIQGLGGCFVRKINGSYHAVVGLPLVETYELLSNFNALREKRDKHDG
UniProt P30864: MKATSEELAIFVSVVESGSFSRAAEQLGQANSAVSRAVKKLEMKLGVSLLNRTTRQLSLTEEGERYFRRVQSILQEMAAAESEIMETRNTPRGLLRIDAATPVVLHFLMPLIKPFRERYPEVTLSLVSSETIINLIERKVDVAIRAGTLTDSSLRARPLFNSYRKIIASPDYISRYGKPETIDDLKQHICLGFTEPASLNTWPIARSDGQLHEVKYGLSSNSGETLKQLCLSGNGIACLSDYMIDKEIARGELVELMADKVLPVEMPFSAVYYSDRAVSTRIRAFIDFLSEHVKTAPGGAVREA
UniProt P32721: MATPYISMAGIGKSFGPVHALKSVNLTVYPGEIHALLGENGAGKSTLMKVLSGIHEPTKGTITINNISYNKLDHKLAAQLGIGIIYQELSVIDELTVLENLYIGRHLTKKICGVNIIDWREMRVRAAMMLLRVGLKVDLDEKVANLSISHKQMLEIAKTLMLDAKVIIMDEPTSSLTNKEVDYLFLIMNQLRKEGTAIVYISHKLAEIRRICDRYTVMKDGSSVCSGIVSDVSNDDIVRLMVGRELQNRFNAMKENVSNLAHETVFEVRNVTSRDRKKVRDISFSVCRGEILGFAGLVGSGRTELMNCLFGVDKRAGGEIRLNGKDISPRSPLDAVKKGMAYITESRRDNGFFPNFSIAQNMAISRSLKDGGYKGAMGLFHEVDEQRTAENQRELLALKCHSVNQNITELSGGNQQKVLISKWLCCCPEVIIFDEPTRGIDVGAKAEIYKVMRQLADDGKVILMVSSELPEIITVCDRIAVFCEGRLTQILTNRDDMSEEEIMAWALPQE
UniProt P25665: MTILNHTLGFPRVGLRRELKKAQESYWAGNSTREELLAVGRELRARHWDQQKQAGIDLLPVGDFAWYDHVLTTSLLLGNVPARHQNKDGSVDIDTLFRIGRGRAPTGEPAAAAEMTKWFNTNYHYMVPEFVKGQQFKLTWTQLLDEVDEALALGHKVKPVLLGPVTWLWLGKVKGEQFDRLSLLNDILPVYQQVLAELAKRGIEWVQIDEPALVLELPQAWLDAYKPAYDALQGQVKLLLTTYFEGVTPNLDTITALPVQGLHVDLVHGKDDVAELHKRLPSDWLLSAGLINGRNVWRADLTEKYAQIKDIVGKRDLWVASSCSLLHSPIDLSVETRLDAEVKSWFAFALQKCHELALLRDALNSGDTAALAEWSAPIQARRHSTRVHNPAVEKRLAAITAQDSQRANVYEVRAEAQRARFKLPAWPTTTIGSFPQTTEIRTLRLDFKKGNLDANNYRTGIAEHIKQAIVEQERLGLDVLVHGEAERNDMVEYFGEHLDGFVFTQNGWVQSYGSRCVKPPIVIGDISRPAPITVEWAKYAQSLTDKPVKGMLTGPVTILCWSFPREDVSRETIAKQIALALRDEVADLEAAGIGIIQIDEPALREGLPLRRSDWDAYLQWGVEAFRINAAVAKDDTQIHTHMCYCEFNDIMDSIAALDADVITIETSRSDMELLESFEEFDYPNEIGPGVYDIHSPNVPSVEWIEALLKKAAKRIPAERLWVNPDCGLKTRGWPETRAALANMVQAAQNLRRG
UniProt P32134: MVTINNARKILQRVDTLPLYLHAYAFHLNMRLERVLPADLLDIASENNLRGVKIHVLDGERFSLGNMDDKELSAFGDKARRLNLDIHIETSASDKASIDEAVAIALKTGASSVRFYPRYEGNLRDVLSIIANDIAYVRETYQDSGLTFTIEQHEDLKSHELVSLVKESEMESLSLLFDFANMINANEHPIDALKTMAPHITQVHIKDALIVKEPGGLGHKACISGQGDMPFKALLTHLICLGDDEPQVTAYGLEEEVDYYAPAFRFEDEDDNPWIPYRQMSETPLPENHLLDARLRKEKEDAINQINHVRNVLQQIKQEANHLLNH
UniProt P33228: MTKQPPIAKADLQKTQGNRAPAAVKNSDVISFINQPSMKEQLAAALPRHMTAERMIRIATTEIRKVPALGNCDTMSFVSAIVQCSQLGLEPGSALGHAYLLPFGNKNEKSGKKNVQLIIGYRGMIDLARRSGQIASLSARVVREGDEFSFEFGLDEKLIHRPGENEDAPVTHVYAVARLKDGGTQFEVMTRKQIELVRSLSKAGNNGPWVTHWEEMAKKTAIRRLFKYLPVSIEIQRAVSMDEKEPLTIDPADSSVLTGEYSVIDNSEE
UniProt P25526: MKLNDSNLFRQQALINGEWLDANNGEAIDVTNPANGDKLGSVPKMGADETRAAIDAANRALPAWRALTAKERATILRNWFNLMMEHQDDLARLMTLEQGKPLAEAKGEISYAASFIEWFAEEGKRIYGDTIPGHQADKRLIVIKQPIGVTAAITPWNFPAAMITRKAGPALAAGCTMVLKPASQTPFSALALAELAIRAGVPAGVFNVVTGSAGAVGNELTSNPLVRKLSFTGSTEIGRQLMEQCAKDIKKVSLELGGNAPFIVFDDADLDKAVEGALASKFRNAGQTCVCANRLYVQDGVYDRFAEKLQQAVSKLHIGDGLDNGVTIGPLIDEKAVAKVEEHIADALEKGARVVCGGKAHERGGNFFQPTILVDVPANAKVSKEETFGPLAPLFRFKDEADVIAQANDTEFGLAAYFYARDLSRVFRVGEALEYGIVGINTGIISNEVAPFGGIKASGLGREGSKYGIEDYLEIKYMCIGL
UniProt P31666: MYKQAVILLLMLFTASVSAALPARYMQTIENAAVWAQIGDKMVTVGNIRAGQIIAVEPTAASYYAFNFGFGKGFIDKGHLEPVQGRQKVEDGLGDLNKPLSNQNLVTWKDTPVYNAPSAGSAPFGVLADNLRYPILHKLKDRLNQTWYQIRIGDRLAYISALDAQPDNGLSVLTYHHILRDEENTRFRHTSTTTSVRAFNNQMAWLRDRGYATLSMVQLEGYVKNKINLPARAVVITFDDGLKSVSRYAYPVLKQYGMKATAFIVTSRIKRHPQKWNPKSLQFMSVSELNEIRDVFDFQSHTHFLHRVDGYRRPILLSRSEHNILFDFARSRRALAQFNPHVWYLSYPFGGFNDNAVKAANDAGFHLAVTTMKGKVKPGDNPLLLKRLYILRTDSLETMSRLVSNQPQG
UniProt P30140: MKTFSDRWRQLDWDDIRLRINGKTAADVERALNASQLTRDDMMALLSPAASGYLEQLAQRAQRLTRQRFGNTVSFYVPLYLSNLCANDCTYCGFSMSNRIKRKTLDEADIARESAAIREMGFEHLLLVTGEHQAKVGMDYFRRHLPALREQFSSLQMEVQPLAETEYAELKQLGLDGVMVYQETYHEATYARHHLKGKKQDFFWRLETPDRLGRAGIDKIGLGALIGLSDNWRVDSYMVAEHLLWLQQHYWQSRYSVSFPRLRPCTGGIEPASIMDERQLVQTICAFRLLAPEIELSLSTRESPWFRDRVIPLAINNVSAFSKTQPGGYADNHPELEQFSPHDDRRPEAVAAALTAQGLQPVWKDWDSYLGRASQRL
UniProt P25535: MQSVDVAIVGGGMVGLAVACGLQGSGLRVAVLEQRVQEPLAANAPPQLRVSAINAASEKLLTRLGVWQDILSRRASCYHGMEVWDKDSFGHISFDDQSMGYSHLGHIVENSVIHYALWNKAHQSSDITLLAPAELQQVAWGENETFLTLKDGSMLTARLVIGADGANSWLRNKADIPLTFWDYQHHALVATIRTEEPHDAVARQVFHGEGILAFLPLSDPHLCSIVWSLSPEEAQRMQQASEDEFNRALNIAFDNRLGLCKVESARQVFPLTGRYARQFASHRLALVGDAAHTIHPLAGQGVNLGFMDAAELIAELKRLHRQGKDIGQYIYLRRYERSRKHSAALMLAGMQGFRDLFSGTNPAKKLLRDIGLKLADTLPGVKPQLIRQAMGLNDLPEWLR
UniProt P27431: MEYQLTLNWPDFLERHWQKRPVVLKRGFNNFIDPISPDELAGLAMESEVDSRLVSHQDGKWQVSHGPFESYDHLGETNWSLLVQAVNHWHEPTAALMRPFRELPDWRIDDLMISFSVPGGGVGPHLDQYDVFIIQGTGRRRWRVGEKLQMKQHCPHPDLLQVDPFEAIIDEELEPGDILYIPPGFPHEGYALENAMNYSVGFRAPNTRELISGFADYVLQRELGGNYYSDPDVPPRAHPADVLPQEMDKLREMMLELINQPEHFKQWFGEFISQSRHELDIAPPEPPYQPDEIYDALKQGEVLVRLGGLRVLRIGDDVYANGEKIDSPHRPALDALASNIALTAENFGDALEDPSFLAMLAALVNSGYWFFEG
UniProt P32160: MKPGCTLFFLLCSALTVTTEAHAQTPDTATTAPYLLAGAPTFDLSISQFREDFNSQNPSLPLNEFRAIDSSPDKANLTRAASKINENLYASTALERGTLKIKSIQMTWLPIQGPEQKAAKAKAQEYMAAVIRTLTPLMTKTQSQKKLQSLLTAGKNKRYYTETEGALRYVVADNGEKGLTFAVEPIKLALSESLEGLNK
UniProt P27859: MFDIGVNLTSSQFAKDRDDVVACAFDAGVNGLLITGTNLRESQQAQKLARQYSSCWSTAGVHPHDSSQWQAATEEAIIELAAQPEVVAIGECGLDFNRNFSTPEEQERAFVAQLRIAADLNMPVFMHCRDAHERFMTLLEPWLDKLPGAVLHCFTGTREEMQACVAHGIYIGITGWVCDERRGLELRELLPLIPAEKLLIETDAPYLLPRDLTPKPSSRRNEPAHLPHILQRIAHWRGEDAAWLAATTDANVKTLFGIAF

The other results are listed elsewhere or left out. Most values lie at the level of the controls, where differences are scatter.

Compound in this assay: CC1(C)S[C@@H]2[C@H](NC(=O)[C@H](N)c3ccccc3)C(=O)N2[C@H]1C(=O)O [ampicillin]
Kind of assay: log2 fold change of tryptic peptide abundance, ligand vs vehicle (limited proteolysis) (log2 ratio); higher = more trypsin-susceptible (destabilized). The following applies: ligand concentration: 10 uM; sample: E. coli crude lysate.
For the target “UniProt P28304 (peptide sequence: VVYDSVGRDTWER, peptide start residue: 212)”, the log2 fold change was -0.503.
In the case of “UniProt P25524 (peptide sequence: WQIANGIQHVR, peptide start residue: 111)” it was -0.511; in that of “UniProt P28631 (peptide sequence: NTLGVDAVR, peptide start residue: 86)”, 0.117.
“UniProt P30871 (peptide sequence: IRGENGRYEMTMK, peptide start residue: 57)”: the log2 fold change is 0.429.
“UniProt P31828 (peptide sequence: PFLLANTR, peptide start residue: 184)”: the log2 fold change was -0.223.
For “UniProt P31129 (peptide sequence: LVNDTYGHLIGDVVLR, peptide start residue: 171)” the value was 0.529; for “UniProt P30750 (peptide sequence: RQIGMIFQHFNLLSSR, peptide start residue: 82)”, 0.175.
In the case of “UniProt P27127 (peptide sequence: LHVLGDGSDFEK, peptide start residue: 211)” it was -0.196; in that of “UniProt P25536 (peptide sequence: IVTGIEEQR, peptide start residue: 27)”, 0.0207.
In the case of “UniProt P33219 (peptide sequence: SADIHYQVSVDCKAGMAEYQRR, peptide start residue: 97)” it was -0.577; in that of “UniProt P27129 (peptide sequence: WAIYPSVK, peptide start residue: 275)”, -0.438.
As for “UniProt P30864 (peptide sequence: KIIASPDYISR, peptide start residue: 165)”, the log2 fold change is -0.52.
Regarding “UniProt P32721 (peptide sequence: GEILGFAGLVGSGR, peptide start residue: 289)”, the log2 fold change was 0.16.
In the case of “UniProt P25665 (peptide sequence: LWVNPDCGLK, peptide start residue: 720)” it was -0.507; in that of “UniProt P32134 (peptide sequence: QEANHLLNH, peptide start residue: 318)”, 0.729; in that of “UniProt P32167 (peptide sequence: VEGGLSVEQQQKLAQTAK, peptide start residue: 91)”, -0.317.
In the case of “UniProt P33228 (peptide sequence: KQIELVR, peptide start residue: 192)” it was 0.145; in that of “UniProt P24182 (peptide sequence: IQVEHPVTEMITGVDLIK, peptide start residue: 293)”, 0.37; in that of “UniProt P31600 (peptide sequence: EGQYDAAQK, peptide start residue: 329)”, 0.471.
For “UniProt P25526 (peptide sequence: LMTLEQGKPLAEAK, peptide start residue: 93)” the value was -0.144; for “UniProt P28635 (peptide sequence: IVELEAPQLPR, peptide start residue: 179)”, -0.328; for “UniProt P31666 (peptide sequence: GFIDKGHLEPVQGR, peptide start residue: 73)”, 0.0348.
In the case of “UniProt P31825 (peptide sequence: QFFVAHDR, peptide start residue: 17)”, the log2 fold change was -0.192.
For “UniProt P32670 (peptide sequence: NEHIPFDEK, peptide start residue: 527)” the value was 0.288.
For “UniProt P24240 (peptide sequence: YGFVFVDRDDAGNGTLTR, peptide start residue: 436)”, the log2 fold change amounted to 0.187.
On to “UniProt P28915 (peptide sequence: LNENHAIK, peptide start residue: 93)”, for which the log2 fold change is -0.43.
As to “UniProt P27242 (peptide sequence: SIQIVSPTYTVK, peptide start residue: 326)”, the log2 fold change is -0.352.
In the case of “UniProt P25718 (peptide sequence: HKDGMAEIGTFHGGDLR, peptide start residue: 213)” it was -0.19; in that of “UniProt P31678 (peptide sequence: IGTGATQASWR, peptide start residue: 219)”, 0.454.
As to “UniProt P30140 (peptide sequence: EMGFEHLLLVTGEHQAK, peptide start residue: 119)”, the log2 fold change was -0.202.
In the case of “UniProt P25737 (peptide sequence: TTEAPGLRR, peptide start residue: 7)” it was -0.135; in that of “UniProt P25535 (peptide sequence: HSAALMLAGMQGFR, peptide start residue: 341)”, 0.561; in that of “UniProt P27431 (peptide sequence: EMMLELINQPEHFK, peptide start residue: 252)”, -0.129.
For “UniProt P32160 (peptide sequence: AIDSSPDKANLTR, peptide start residue: 67)” the value was -0.127; for “UniProt P27859 (peptide sequence: DLTPKPSSR, peptide start residue: 211)”, 0.141.
